Source: PubChem BioAssay AID743121 (NCATS, 2013)

Aim: 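Partners whose loss is lethal together with topoisomerase I blockade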 (primary screen)
Cell system: MDA-MB-231 cells, a human breast cancer line
Knock-down reagent: single siRNA against human genes, 20 nM siRNA (0.8 pmol per well)
Duration: 120 h (drug added 48 h after transfection, read 72 h later)
Conditions: camptothecin 20 nM (about EC30) for 72 h; vehicle 0.1% DMSO in parallel plates
Measurement: 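CellTiter-Glo ATP signal, scaled to control siRNA as percent viability; sensitisation given as log2 of untreated divided by camptothecin-treated viability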
Direction: log2 vehicle/camptothecin viability: higher = stronger sensitisation to camptothecin; viability with camptothecin: higher = more viable cells
Units: viability with camptothecin in % of control
Call rule: 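Active genes have an RSA gene-level p-value below 0.001, computed from the ratios of their separate siRNAs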
In all, the deposit lists about 26,000 reagents; this is a part drawn at random. Of all reagents, 167 (0.63%) are marked active. 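Calls are per gene from RSA p-values that are not deposited; an individual active-marked siRNA can sensitise only weakly.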 The numbers tell different reagents against one gene apart. Further read-outs or replicates are left out here. No sequences are given here.

TRPV4 #1 → log2 vehicle/camptothecin viability = -0.506; viability with camptothecin = 35.6; activity call = inactive
TRPV4 #2 → log2 vehicle/camptothecin viability = -0.401; viability with camptothecin = 69.7; activity call = inactive
TRPV4 #3 → log2 vehicle/camptothecin viability = -0.153; viability with camptothecin = 65.3; activity call = inactive
TRPV4 #4 → log2 vehicle/camptothecin viability = 0.0755; viability with camptothecin = 92.7; activity call = inactive
MRPL3 #1 → log2 vehicle/camptothecin viability = -0.241; viability with camptothecin = 82.3; activity call = inactive
MRPL3 #2 → log2 vehicle/camptothecin viability = -0.36; viability with camptothecin = 80.9; activity call = inactive
MRPL3 #3 → log2 vehicle/camptothecin viability = -0.17; viability with camptothecin = 107; activity call = inactive
MRPL3 #4 → log2 vehicle/camptothecin viability = 0.109; viability with camptothecin = 70; activity call = inactive
CPZ #1 → log2 vehicle/camptothecin viability = -0.508; viability with camptothecin = 89.9; activity call = inactive
CPZ #2 → log2 vehicle/camptothecin viability = -0.57; viability with camptothecin = 47.7; activity call = inactive
CPZ #3 → log2 vehicle/camptothecin viability = -0.403; viability with camptothecin = 39.3; activity call = inactive
CPZ #4 → log2 vehicle/camptothecin viability = -0.189; viability with camptothecin = 80.5; activity call = inactive
IP6K2 #1 → log2 vehicle/camptothecin viability = 1.09; viability with camptothecin = 18.9; activity call = inactive
IP6K2 #2 → log2 vehicle/camptothecin viability = -0.148; viability with camptothecin = 88.1; activity call = inactive
IP6K2 #3 → log2 vehicle/camptothecin viability = -0.186; viability with camptothecin = 116; activity call = inactive
IP6K2 #4 → log2 vehicle/camptothecin viability = 0.324; viability with camptothecin = 28.1; activity call = inactive
DVL1 #1 → log2 vehicle/camptothecin viability = 0.811; viability with camptothecin = 56.9; activity call = inactive
DVL1 #2 → log2 vehicle/camptothecin viability = -0.622; viability with camptothecin = 81.1; activity call = inactive
DVL1 #3 → log2 vehicle/camptothecin viability = -0.0961; viability with camptothecin = 91.3; activity call = inactive
DVL1 #4 → log2 vehicle/camptothecin viability = -0.2; viability with camptothecin = 104; activity call = inactive
MAP4K1 #1 → log2 vehicle/camptothecin viability = -0.099; viability with camptothecin = 103; activity call = inactive
MAP4K1 #2 → log2 vehicle/camptothecin viability = -0.445; viability with camptothecin = 73.8; activity call = inactive
MAP4K1 #3 → log2 vehicle/camptothecin viability = -0.0678; viability with camptothecin = 61.8; activity call = inactive
MAP4K1 #4 → log2 vehicle/camptothecin viability = -0.521; viability with camptothecin = 89.8; activity call = inactive
RGS20 #1 → log2 vehicle/camptothecin viability = -0.291; viability with camptothecin = 118; activity call = inactive
RGS20 #2 → log2 vehicle/camptothecin viability = -0.348; viability with camptothecin = 119; activity call = inactive
RGS20 #3 → log2 vehicle/camptothecin viability = -0.265; viability with camptothecin = 84.9; activity call = inactive
RGS20 #4 → log2 vehicle/camptothecin viability = -0.263; viability with camptothecin = 61.5; activity call = inactive
PYGM #1 → log2 vehicle/camptothecin viability = -0.578; viability with camptothecin = 56.5; activity call = inactive
PYGM #2 → log2 vehicle/camptothecin viability = -0.00336; viability with camptothecin = 74.1; activity call = inactive
PYGM #3 → log2 vehicle/camptothecin viability = -0.0327; viability with camptothecin = 63.9; activity call = inactive
PYGM #4 → log2 vehicle/camptothecin viability = -0.149; viability with camptothecin = 73.8; activity call = inactive
WDR24 #1 → log2 vehicle/camptothecin viability = -0.379; viability with camptothecin = 35.3; activity call = inactive
WDR24 #2 → log2 vehicle/camptothecin viability = -0.359; viability with camptothecin = 88.1; activity call = inactive
WDR24 #3 → log2 vehicle/camptothecin viability = -0.126; viability with camptothecin = 92.5; activity call = inactive
WDR24 #4 → log2 vehicle/camptothecin viability = 0.301; viability with camptothecin = 57.6; activity call = inactive
